17 compounds from PubChem BioAssay AID2685 (National Center for Advancing Translational Sciences (NCATS), 2010) can be followed below.

A short description of this experiment: qHTS Assay for Lipid Storage Modulators in Drosophila S3 Cells.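 As to cell number change: cells counted by Cell Tracker Red CMTPX staining in the red channel.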 Conditions: BODIPY lipid droplet fluorescence, 18-24 h; for cell number change: measured here: cell count max response, cells fed with added oleic acid. In short, it runs like this: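 Laser-scanning cytometry quantifies lipid droplet accumulation (500–530 nm total intensity; droplet/cell object ratio) in oleic acid-fed (400 uM added) Drosophila S3 cells treated with a concentration series. 20 uM Triacsin C defined 100% inhibition.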

Where [1] appears, read: measured here: lipid fluorescence (Fed channel) AC50, cells fed with added oleic acid.
Where [2] appears, read: measured here: cell number channel AC50, cells fed with added oleic acid.

The list shows a part of the results. These are further read-outs of the screen, such as a control signal, another cell line or another target. No call is given for them. Compounds called inactive in the main read-out are mostly missing here. Potencies come from curve fits of mixed quality, noted in brackets.

Broadly, the AC50 is the concentration giving half of the maximal activity seen. With `CC(CCO)Nc1nc2c([nH]1)c(=O)n(C)c(=O)n2C` (configuration not stated), the cell number change is -21.3%. In addition, under setting [1], the AC50 is 5.8 µM [falling, full curve, poor fit].

Take `CCOc1ccc(N/C=C/C(=O)c2ccc(C)cc2)c([N+](=O)[O-])c1`: the cell number change was determined as 5.27%.

Turning to `COc1cc(CN2CCCC(CO)(Cc3cccc(Cl)c3)C2)cc(OC)c1O` (configuration not stated), the cell number change amounted to 2.07%. Further, the half-maximal activity concentration (AC50) under setting [2] was 0.731 µM [falling, single point].

In the case of `O=C(N1CCCCC1)N1CCN(c2ccc(Cl)cc2)CC1`, under setting [1], the AC50 was 5.8 µM [rising, single point].

On to `CCOc1cc(CNC(=O)CN2C(=O)c3ccccc3S2(=O)=O)ccc1OC`, for which the cell number change was -68%. Under setting [2], the AC50 is 3.26 µM [falling, full curve].

`CN(C(=O)COC(=O)CN1C(=O)C2CC=CCC2C1=O)c1ccccc1` (configuration not stated): the cell number change was -25%. For the same compound, the half-maximal activity concentration (AC50) under setting [2] is 0.206 µM [falling, full curve, poor fit]. Also, under setting [1], the AC50 was 18.4 µM [rising, single point].

Turning to `Cc1ccc(N=Nc2c(=O)[nH]n3c(C)cc(C)nc23)cc1`, the cell number change was 20.7%. For the same compound, under setting [1], the concentration at half-maximal activity (AC50) was 32.6 µM [rising, single point].

Take `O=C(NCc1ccco1)C(=O)c1c[nH]c2ccccc12`: the cell number change was 14.5%.

In the case of `O=C(O)CCCn1cc(NC(=O)c2cccc(F)c2)cn1`, the cell number change is -7.74%.

Regarding `O=C(COc1ccccc1F)Nc1cc(S(=O)(=O)N2CCOCC2)ccc1N1CCOCC1`, the cell number change was found to be 12.9%.

Turning to `CN(Cc1ccco1)S(=O)(=O)c1nnc(NC(=O)c2cccc(Cl)c2)s1`, the AC50 is, setting by setting: under setting [2], 6.51 µM [falling, single point]; under setting [1], 29.1 µM [falling, single point].

As to `Cc1cc(OC(=O)C(C)(C)C)c([N+](=O)[O-])c(=O)[nH]1`, the cell number change is 21.9%. Further, the AC50 under setting [1] was 1.16 µM [rising, full curve, poor fit].

As for `COc1cc(CC(C#N)(CO)c2nc3ccccc3[nH]2)ccc1OC(F)F` (configuration not stated), the cell number change was -50%. Besides, under setting [2], the AC50 was 0.58 µM [falling, full curve, poor fit].

Turning to `CCOC(=O)C1=NN(C(C)=O)C2(CC(=O)N(c3cc(C)cc(C)c3)C2=O)C1` (configuration not stated), the cell number change is -12%. Moreover, the AC50 under setting [1] was 0.058 µM [falling, full curve, poor fit].

`COc1cc(C(=O)N/N=C/C2CC=CCC2)cc(OC)c1OC` (configuration not stated): the cell number change was -18%. Also, the AC50 under setting [1] was 4.61 µM [rising, single point].

In the case of `CC(C)C[C@@H]1NC(=O)[C@H](Cc2ccc(O)cc2)NC(=O)c2cc([N+](=O)[O-])cc(I)c2NCCC[C@@H](C(N)=O)NC1=O`, the cell number change was -22%. Further, the AC50 under setting [2] is 0.82 µM [falling, full curve, poor fit]. Moreover, under setting [1], the AC50 was 2.06 µM [falling, full curve].

Regarding `CCCNC(=S)Nc1ccc(Oc2ccccc2)cc1`, the cell number change was determined as 43.5%. Moreover, the AC50 under setting [2] was 16.4 µM [rising, single point]. Besides, under setting [1], the AC50 was 29.1 µM [rising, single point].
